Measurements from PubChem BioAssay.
The inconclusive results got no clear call from the source; some entries with a clear call stand among them for comparison. Activity calls are given as the source filed them.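 The calls were made as follows, unless noted: active = thallium flux slope beyond 3 SD from same-plate DMSO control mean in most replicates, usually higher, sometimes lower; inconclusive = repeat tests gave conflicting results; inactive = no significant difference from controls in most replicates.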

Chains of the proteins cited; added tags and fusions are not shown. Lines headed by an entry give the natural chain unless they say otherwise; changes in a name come on top.
UniProt Q9H2X9: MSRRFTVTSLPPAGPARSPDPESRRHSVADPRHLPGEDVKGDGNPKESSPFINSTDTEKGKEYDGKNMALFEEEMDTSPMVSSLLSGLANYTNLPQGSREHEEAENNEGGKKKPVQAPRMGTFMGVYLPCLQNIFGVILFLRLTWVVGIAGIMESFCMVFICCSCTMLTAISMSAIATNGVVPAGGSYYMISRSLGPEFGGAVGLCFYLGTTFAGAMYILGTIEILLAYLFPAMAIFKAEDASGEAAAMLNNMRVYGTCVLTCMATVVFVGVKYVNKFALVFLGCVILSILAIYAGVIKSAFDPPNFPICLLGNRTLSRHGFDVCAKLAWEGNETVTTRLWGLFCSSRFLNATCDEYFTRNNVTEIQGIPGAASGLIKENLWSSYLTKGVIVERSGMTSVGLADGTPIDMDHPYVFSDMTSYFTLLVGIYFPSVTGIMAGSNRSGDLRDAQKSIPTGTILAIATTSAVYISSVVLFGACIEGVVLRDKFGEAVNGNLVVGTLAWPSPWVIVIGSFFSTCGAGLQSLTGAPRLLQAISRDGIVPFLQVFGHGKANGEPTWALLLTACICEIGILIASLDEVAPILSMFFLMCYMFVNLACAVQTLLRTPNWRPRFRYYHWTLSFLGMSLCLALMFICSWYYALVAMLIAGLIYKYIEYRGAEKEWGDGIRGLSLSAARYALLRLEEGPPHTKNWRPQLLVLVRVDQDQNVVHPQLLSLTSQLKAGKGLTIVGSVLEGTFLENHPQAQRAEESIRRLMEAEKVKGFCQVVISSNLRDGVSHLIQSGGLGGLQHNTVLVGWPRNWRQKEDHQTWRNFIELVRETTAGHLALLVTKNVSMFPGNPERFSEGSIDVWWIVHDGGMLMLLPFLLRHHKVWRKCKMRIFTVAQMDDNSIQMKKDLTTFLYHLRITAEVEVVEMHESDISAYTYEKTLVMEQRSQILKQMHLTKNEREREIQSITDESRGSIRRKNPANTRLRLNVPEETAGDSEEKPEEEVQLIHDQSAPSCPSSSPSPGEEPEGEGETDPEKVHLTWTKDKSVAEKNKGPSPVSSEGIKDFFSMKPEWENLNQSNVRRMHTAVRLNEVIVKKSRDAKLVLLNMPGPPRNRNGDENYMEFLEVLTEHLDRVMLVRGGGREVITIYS

Key:
[1] = target: Solute carrier family 12 member 5 (Homo sapiens) (UniProt Q9H2X9); assay: retest of KCC2 transport modulators without sodium – cell-based, HEK293 KCC2, thallium flux, secondary assay, confirmation (AID 1713;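 active = thallium flux slope above the same plate's solvent-only control mean plus 3 SD; inconclusive = the two replicate wells disagree; inactive = no significant difference from solvent-only control wells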); conditions: FluoZin2 fluorescence, at 10 µM, hits give high values
How it was run: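 Read-out basis: F/F0 slope over 10–20 s post-thallium, baseline-normalized; test system: KCC2-expressing HEK cells; detection: FluoZin2 fluorescence, 480/540 nm, 1 Hz; reagent: thallium stimulus; compound dosing: 10 µM single concentration; control set: 2 mM bumetanide as positive, DMSO as negative control; times: 48 min dye loading; buffer or medium: Sodium-free N-methylglucamine chloride buffer; replicates: duplicates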

[2] = FluoZin2 fluorescence counter-screen of MLSMR hits on KCC2-expressing cells (AID 1714;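 active = thallium entry rate above the same plate's blocked-transporter control wells by more than 3 SD; inconclusive = the two repeat wells disagree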;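 also: raw slope of fluorescence over initial fluorescence between 10 and 20 s after thallium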); conditions: HEK293-KCC2 + bumetanide/ouabain, at 10 µM, hits give high values
How it was run: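 material = KCC2-expressing HEK cells | reagent = thallium stimulus | compound dosing = 10 µM single dose | schedule = cells overnight at 37 °C, FluoZin2-AM dye loading 48 min | technique = kinetic FluoZin2 fluorescence, ex 480/em 540 nm | evaluation = normalized thallium flux slope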

[3] = target: Solute carrier family 12 member 5 (Homo sapiens) (UniProt Q9H2X9); assay: modulation of KCC2 thallium flux in HEK cells – cell-based, ouabain, retest, confirmation (AID 1717); conditions: HEK293-KCC2, thallium flux FluoZin2 fluorescence, at 10 µM, bidirectional: low = inhibitor, high = activator;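 also: slope of initial-normalized fluorescence between seconds 10 and 20 after thallium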
[4] = native HEK Tl+ uptake effects, second counter-screen – HEK cells, counterscreen 2, counter-screen for KCC2 modulator project, confirmation (AID 1718;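 active = thallium flux slope above the same plate's solvent-control mean plus 3 SD in both duplicate wells; inconclusive = duplicate wells that disagreed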;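 also: run without ouabain in cells lacking the KCC2 cotransporter; slope of fluorescence scaled to its starting value between 10 and 20 s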); conditions: HEK293 parental, thallium flux FluoZin-2 fluorescence slope; at 10 µM
How it was run: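 System: Parental HEK cells | Also added: Thallium sulfate stimulus buffer | Compound dosing: Single 10 µM final compound dose, 0.1% DMSO | Schedule: Overnight cell culture at 37 °C, 48 min dye loading, compound before thallium | Signal: FluoZin-2 fluorescence kinetics | Repeats: Replicate wells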

[5] = compound effects on native HEK Tl+ uptake – HEK cells, counterscreen 1, counter-screen for KCC2 modulator project, confirmation (AID 1716;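 active = thallium flux rate significantly above the same plate's solvent-only control wells, beyond their mean plus 3 SD; inconclusive = the two replicate wells gave conflicting results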); conditions: HEK293 parental cells, thallium flux FluoZin2, ouabain; at 10 µM; baseline-ratio fluorescence slope, 10–20 s after thallium

Row | SMILES | normalised thallium flux (F/F0 slope) [1] | normalized thallium flux [2] | raw Tl+ flux slope (below DMSO = inhibition, above = activation) [3] | thallium flux slope [4] | thallium flux rate (normalised fluorescence) [5]
1 | Cn1c(-c2ccc3nc(N)sc3c2)nc2cc(N)ccc21 | inconclusive: 0.00426 | inconclusive: 0.00516 | inactive: 0.0192 | – | –
2 | COc1ccc(/C=C/C(=O)NC(=S)NNC(=O)c2c(-c3ccccc3)noc2C)cc1 | active: 0.013 | active: 0.0368 | inconclusive: 0.0301 | active: 0.0118 | –
3 | O=C(CSc1ccccc1C(=O)NCc1ccccc1)NC1CCCCCCC1 | inactive: 0.00686 | inconclusive: 0.00572 | inconclusive: 0.0161 | inactive: 0.0106 | inactive: 0.00671
4 | Cn1cc(Br)c(C(=O)Nc2c(F)c(F)c(F)c(F)c2F)n1 | inconclusive: 0.011 | inconclusive: 0.00749 | inactive: 0.023 | – | –
5 | CCN(CC)c1ccc(NC(=O)c2ccccc2F)cc1 | inactive: 0.0165 | inconclusive: 0.00613 | inactive: 0.0145 | – | –
6 | O=S(=O)(NCCc1ccccc1F)c1cccc(S(=O)(=O)N2CCOCC2)c1 | inactive: 0.00607 | inactive: 0.00536 | inconclusive: 0.0172 | – | inactive: 0.00721
7 | Cc1cc(SCC(=O)NC(=O)NCc2ccco2)nc2c(C)cccc12 | inactive: 0.00757 | active: 0.0063 | inconclusive: 0.0223 | – | –
8 | O=C(CSc1ccccc1C(=O)NCc1ccccc1)NC12CC3CC(CC(C3)C1)C2 | inconclusive: 0.00455 | inconclusive: 0.00554 | inconclusive: 0.0157 | – | inactive: 0.00718
9 | Cc1cccc(Nc2nnc(SCC(=O)c3ccc(Br)s3)s2)c1C | – | – | active: 0.0109 | – | –
